Results are given in words; binding and its absence hold for the method and conditions named. For some of these results: In cells and extracts the contact can be indirect. Some entries that bind do so weakly or less than the wild type. Sequences can lack the tags named with a protein.
Tests used:
Settings in all cases: remark: other sources report otherwise
[1] = target: T1, His-tagged Orc1 (Orc1-His), wild type (S. cerevisiae), P54784; experiment: pull-down; cleared lysates of 293T cells co-overexpressing Orc1-His, Orc2, Orc3, Orc4, Orc5 with or without Orc6; pulldown by the His tag; 9% SDS-PAGE, Coomassie staining
T1 chain: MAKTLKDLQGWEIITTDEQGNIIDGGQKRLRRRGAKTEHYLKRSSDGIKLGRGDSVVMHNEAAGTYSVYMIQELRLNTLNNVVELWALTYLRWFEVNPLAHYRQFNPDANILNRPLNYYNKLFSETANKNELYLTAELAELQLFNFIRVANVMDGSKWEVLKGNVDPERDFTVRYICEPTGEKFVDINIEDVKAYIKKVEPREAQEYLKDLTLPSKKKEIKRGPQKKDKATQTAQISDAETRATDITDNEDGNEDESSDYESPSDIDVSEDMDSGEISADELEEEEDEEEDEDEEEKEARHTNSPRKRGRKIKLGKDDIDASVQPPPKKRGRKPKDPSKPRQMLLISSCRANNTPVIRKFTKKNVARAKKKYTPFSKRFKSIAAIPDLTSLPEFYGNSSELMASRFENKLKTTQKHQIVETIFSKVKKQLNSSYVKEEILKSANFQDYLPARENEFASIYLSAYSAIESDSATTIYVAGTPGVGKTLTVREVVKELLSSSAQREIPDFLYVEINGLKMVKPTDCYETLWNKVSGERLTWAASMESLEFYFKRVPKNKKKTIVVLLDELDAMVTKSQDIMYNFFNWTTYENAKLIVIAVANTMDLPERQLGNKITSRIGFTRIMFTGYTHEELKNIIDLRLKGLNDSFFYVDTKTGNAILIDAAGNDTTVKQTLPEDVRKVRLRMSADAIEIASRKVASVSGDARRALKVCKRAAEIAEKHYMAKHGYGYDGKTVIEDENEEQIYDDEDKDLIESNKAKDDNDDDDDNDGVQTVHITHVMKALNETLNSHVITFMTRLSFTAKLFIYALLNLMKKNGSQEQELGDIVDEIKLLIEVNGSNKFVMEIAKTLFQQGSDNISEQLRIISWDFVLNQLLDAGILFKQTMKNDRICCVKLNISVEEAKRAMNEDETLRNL

[2] = target: T1, His-tagged Orc1 (Orc1-His), wild type …; experiment: SEC; Superdex 200 in buffer H/0.2 (200 mM KCl) of the peak fractions after His affinity step and SP Sepharose; fractions on 9% SDS-PAGE, Coomassie; subunits co-expressed in 293T cells
[3] = target: T1, His-tagged Orc1 (Orc1-His), wild type …; experiment: HisTrap affinity column chromatography; HisTrap column with linear imidazole gradient elution of lysate of 293T cells co-overexpressing His-tagged Orc1 (wild type or mutant) and Orc2/3/4/5/6; fractions on 9% SDS-PAGE, Coomassie
[4] = target: T1, His-tagged Orc1 (Orc1-His), wild type …; experiment: pull-down; MagneHis beads, 1 h, in lysis buffer (50 mM Hepes-KOH pH 7.6, 0.3% NP-40, 400 mM KCl, 17.5 mM imidazole) with nuclease-treated lysate of 293T cells co-overexpressing Orc1-His and Orc2/3/4/5; five washes, elution with 500 mM imidazole; SDS-PAGE, Coomassie

Measured: binding

B1: Orc2, P32833 1-620 (protein)
chain: MLNGEDFVEHNDILSSPAKSRNVTPKRVDPHGERQLRRIHSSKKNLLERISLVGNERKNTSPDPALKPKTPSKAPRKRGRPRKIQEELTDRIKKDEKDTISSKKKRKLDKDTSGNVNEESKTSNNKQVMEKTGIKEKREREKIQVATTTYEDNVTPQTDDNFVSNSPEPPEPATPSKKSLTTNHDFTSPLKQIIMNNLKEYKDSTSPGKLTLSRNFTPTPVPKNKKLYQTSETKSASSFLDTFEGYFDQRKIVRTNAKSRHTMSMAPDVTREEFSLVSNFFNENFQKRPRQKLFEIQKKMFPQYWFELTQGFSLLFYGVGSKRNFLEEFAIDYLSPKIAYSQLAYENELQQNKPVNSIPCLILNGYNPSCNYRDVFKEITDLLVPAELTRSETKYWGNHVILQIQKMIDFYKNQPLDIKLILVVHNLDGPSIRKNTFQTMLSFLSVIRQIAIVASTDHIYAPLLWDNMKAQNYNFVFHDISNFEPSTVESTFQDVMKMGKSDTSSGAEGAKYVLQSLTVNSKKMYKLLIETQMQNMGNLSANTGPKRGTQRTGVELKLFNHLCAADFIASNEIALRSMLREFIEHKMANITKNNSGMEIIWVPYTYAELEKLLKTVLNTL
binds: all assays above
